Test results from article PMC8166973.
These are yes or no findings as the source states them, for the method shown. Some binding calls cover weakened binding; strength is not graded here.

Sequences of proteins named here, by UniProt entry; tags and fusion partners are left off. Residues count along the entry.
UniProt P05622, residues 32-561: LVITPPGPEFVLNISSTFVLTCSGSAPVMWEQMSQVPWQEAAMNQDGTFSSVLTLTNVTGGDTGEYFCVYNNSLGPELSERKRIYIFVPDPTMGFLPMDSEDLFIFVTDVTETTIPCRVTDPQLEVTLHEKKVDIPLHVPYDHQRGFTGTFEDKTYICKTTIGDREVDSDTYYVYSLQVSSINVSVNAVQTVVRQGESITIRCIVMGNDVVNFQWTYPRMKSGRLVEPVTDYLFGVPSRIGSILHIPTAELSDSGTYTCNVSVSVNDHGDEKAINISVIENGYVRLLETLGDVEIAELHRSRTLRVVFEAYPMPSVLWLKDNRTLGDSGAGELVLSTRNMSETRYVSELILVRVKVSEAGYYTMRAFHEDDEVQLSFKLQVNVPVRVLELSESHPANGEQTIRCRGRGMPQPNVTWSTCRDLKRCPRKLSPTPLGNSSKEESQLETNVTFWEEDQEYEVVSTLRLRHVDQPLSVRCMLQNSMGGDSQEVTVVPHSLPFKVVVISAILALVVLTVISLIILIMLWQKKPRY
UniProt P01127, residues 82-190: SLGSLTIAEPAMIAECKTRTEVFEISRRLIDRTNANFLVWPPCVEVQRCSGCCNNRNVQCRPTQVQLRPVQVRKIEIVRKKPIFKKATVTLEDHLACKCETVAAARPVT

Target: mouse PDGFRβ (mPDGFRβ) fragment (amino acids 1-561) fused to GFP (mouse) (UniProt P05622)
Assay: flow cytometry on cells; biotinylated proteins oligomerised around streptavidin-phycoerythrin; HEK293F cells transfected with PDGFRβ(1-561)-GFP; 30 min on ice in PBS + 2% FBS; gMFI of GFP+ over GFP- cells in the same well (gMFI Index); 3-log concentration range; also with 10 mM EDTA or 10 µg/mL anti-αv-integrin mAb, without effect; only the binder purified

“homodimeric form of human platelet derived growth factor B (hPDGF-BB) (from UniProt P01127 82-190) (ligand)” was tested, and the binding was “binds”.
